From paper PMC3210814

B1: SdPI Lys14Ala mutant (peptide, UniProt P0DJ45 22-80)
chain: KNKCQLPSDVGKGAASFTRYYYNEEGGKCETFIYGGVGGNSNNFLTKEDCCRECAQGSC
B2: recombinant SdPI peptide (scorpion-derived protease inhibitor), wild type (peptide, UniProt P0DJ45 22-80)
chain: B1 chain with A14K

Experiments:
[1] = biological target: bovine pancreatic trypsin (bovine); experiment: enzyme inhibition assay (chromogenic substrate), Lineweaver-Burk plots and replot of the slopes; trypsin 400 nM pre-incubated with the inhibitor for 30 min; 100 mM Tris-HCl pH 8.0, 10 mM CaCl2, 25°C; substrate Nα-benzoyl-L-arginine 4-nitroanilide 0.1 to 0.8 mM; p-nitroaniline read at 405 nm for 5 min; both purified
[2] = biological target: bovine pancreatic α-chymotrypsin (bovine); experiment: enzyme inhibition assay (chromogenic substrate), inhibition against inhibitor concentration; chymotrypsin or elastase 100 nM incubated with 0 to 40000 nM rSdPI for 30 min; as for trypsin, with the relevant chromogenic substrates; both purified

| Binder | binding [1] | binding [2] |
| --- | --- | --- |
| B1 | no binding (tested: 40 µM) |  |
| B2 |  | no binding (tested: 40000 nM) |

Residue numbers refer to the chain shown, from its start. These are yes or no findings as the source states them, for the method shown.
